The text below walks through data of PubChem BioAssay AID2685 (National Center for Advancing Translational Sciences (NCATS), 2010).

A short description of the experiment: qHTS Assay for Lipid Storage Modulators in Drosophila S3 Cells.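 For cell number change: cells counted by Cell Tracker Red CMTPX staining in the red channel.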 The following applies: BODIPY lipid droplet fluorescence, 18-24 h; for cell number change: measured here: cell count max response, cells fed with added oleic acid. The essentials: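 Drosophila S3 cells loaded with oleic acid (400 uM, as added) and compounds at several concentrations; lipid droplets imaged by 488-nm laser-scanning cytometry, 500–530 nm intensity and object ratio to cell channel. Percent activity normalized to 20 uM Triacsin C.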

[1] abbreviates: measured here: cell number channel AC50, cells fed with added oleic acid.
The mark [2] stands for this setting: measured here: lipid fluorescence (Fed channel) AC50, cells fed with added oleic acid.

The list shows a part of the results. Further columns of the screen follow, without active or inactive calls. The list favours compounds with an active or inconclusive main result. Words in brackets tell the shape of the fitted curve; partial curves, single points and poor fits give uncertain potencies.

Take `CC(=O)N(c1nc(CCl)cs1)c1c(C)cc(C)cc1C`: the cell number change is -39.2%. Further, the concentration at half-maximal activity (AC50) under setting [1] is 14.6 µM [falling, partial curve].
As for `CCCCCCN1C(=O)C(O)=C(C(C)=O)C1c1ccccc1[N+](=O)[O-]` (stereo not given), the cell number change is -31.4%. Further, under setting [1], the AC50 was 8.2 µM [falling, partial curve, poor fit]. Also, under setting [2], the half-maximal activity concentration (AC50) is 23.1 µM [falling, partial curve].
As for `COc1ccccc1NC(=O)C(=O)NCC1CCCN1S(=O)(=O)c1cccs1` (stereo not given), the cell number change was -42.4%. For the same compound, the AC50 under setting [1] was 20.6 µM [falling, partial curve, poor fit]. Besides, the AC50 under setting [2] is 29.1 µM [falling, single point].
For the compound `COc1ccc(/C=N/NC(=O)CSc2nnc(CCCc3ccc(OC)c(C)c3)o2)cc1`, the cell number change amounted to 1.43%. For the same compound, the AC50 under setting [2] was 0.146 µM [rising, full curve, poor fit].
Regarding `O=C(Nc1nc2n(n1)C(c1ccccc1)CC(c1ccc(Cl)cc1)N2)c1ccco1` (stereo not given), the cell number change was -11.8%. Under setting [2], the AC50 was 0.00461 µM [falling, full curve, poor fit].
For the compound `Cc1csc(/C(=N\O)c2csc(C)n2)n1`, the cell number change is -5%.
`CCN(CC)CCOC(=O)/C=C/c1ccccc1OC`: the AC50 under setting [2] is 32.6 µM [rising, single point].
Consider `C#CCOCCOCCOCCNc1nc(N2CCN(C(=O)[C@H]([C@@H](C)CC)n3cc(CCCCN)nn3)CC2)nc(N2CCN(C(=O)[C@H](CCCCN)n3cc(CCC(=O)O)nn3)CC2)n1`, for which the cell number change was -45%. The AC50 under setting [1] was 29.1 µM [falling, single point]. Moreover, under setting [2], the AC50 was 25.9 µM [falling, single point].
Regarding `O=C(O)COc1ccccc1O`, the cell number change is -30%. In addition, the AC50 under setting [1] is 3.66 µM [falling, full curve, poor fit]. The AC50 under setting [2] is 2.31 µM [falling, full curve].
Regarding `CCC(CC)c1nnc(NC(=O)c2ccc3c(c2)OCO3)s1`, the cell number change is 19.6%.
Still for that read-out and setting: next, `CC1CN(C(=O)CCS(=O)(=O)c2ccccc2)CC(C)O1` (stereo not given): -2.17%.
Turning to `CCN(CC)S(=O)(=O)c1ccc(NC(=O)c2ccccn2)cc1`, the cell number change turned out to be 18.5%. In addition, the half-maximal activity concentration (AC50) under setting [2] is 1.84 µM [rising, full curve].
`CCn1cc(CCC(=O)NCc2ccccc2OC)c2ccccc21`: the cell number change was 45.1%. The AC50 under setting [1] was 0.00461 µM [rising, full curve, poor fit].
For the compound `Cn1c(CCNC(=O)c2cccs2)nnc1SCC(=O)Nc1nc(-c2ccccc2)cs1`, the AC50 by setting is: under setting [1], 6.51 µM [falling, single point]; under setting [2], 29.1 µM [falling, single point].
For `COCCN1Cc2cccc(C(=O)NCc3ccc4c(c3)OCO4)c2C1=O`, the cell number change was 44.6%. Also, the AC50 under setting [1] was 8.2 µM [rising, partial curve]. Besides, the AC50 under setting [2] was 0.13 µM [rising, full curve, poor fit].
Take `Cc1sc2ncn(CC(=O)NCCCN3CC(C)CC(C)C3)c(=O)c2c1S(=O)(=O)N1CC(C)CC(C)C1` (stereo not given): the cell number change stood at 13.1%. Besides, the AC50 under setting [2] is 0.58 µM [rising, single point].
For `Cc1ccc(N(CCC(=O)O)S(=O)(=O)c2ccc(C)cc2)cc1`, the cell number change is -35.7%. Further, the AC50 under setting [1] was 25.9 µM [falling, partial curve]. Moreover, the AC50 under setting [2] was 14.6 µM [falling, partial curve].
For `Cc1cc(C)cc(-n2c(SCC(=O)NCc3ccco3)nc3ccccc3c2=O)c1`, the cell number change turned out to be 40.7%. In addition, under setting [1], the AC50 is 4.61 µM [rising, full curve]. The AC50 under setting [2] was 16.4 µM [rising, partial curve].
For `COc1ccccc1N1CCN(C(=O)CN(c2ccc(C)c(C)c2)S(C)(=O)=O)CC1`, the cell number change worked out at 31.3%. In addition, the half-maximal activity concentration (AC50) under setting [1] was 14.6 µM [rising, single point]. Further, the AC50 under setting [2] is 6.51 µM [rising, single point].
Consider `Cc1cc(C2CCCCC2)n(O)c(=O)c1`, for which the cell number change was -54.8%. In addition, the AC50 under setting [1] is 11.6 µM [falling, partial curve].
As for `CC(Sc1ccc(S(=O)(=O)N2CCOCC2)cn1)C(=O)Nc1ccc(Cl)cc1Cl` (stereo not given), the cell number change stood at 6.08%.
As for `Cc1cc(/C=C2/NC(=O)NC2=O)c(C)n1C`, the cell number change is -4.17%. The AC50 under setting [1] is 4.61 µM [falling, single point]. Moreover, the AC50 under setting [2] was 3.66 µM [falling, single point].
Take `O=C(Nc1ccc(N2CCN(C(=O)c3ccccc3)CC2)cc1)c1ccc([N+](=O)[O-])o1`: the cell number change is -26.4%. For the same compound, the AC50 under setting [1] was 2.31 µM [falling, full curve, poor fit]. For the same compound, the AC50 under setting [2] is 3.26 µM [falling, single point].
As for `O=C(CCN1C(=O)C2CC=CCC2C1=O)Nc1cccc(S(=O)(=O)N2CCCCC2)c1` (stereo not given), the cell number change is -13.3%.
Take `Cc1cccc(-c2nnc(SCC#N)n2-c2ccccc2)c1`: the cell number change was determined as 3.48%. Besides, the half-maximal activity concentration (AC50) under setting [2] is 4.11 µM [rising, full curve, poor fit].
As to `CCOc1ccc(OCCN2C(=O)c3ccccc3C2=O)cc1`, the cell number change is -15.7%.
In the case of `Cc1ccc(C)c(OCCNc2ncccc2[N+](=O)[O-])c1`, the cell number change is -12.9%. Also, the AC50 under setting [2] was 29.1 µM [falling, single point].
With `Cc1cccc(S(=O)(=O)Nc2nc3ccccc3nc2NCc2ccc3c(c2)OCO3)c1`, the cell number change came to 12.8%. For the same compound, under setting [2], the half-maximal activity concentration (AC50) was 13 µM [rising, partial curve, poor fit].
Turning to `Cc1ccc2oc(=O)c3cnn(CC(=O)N4CCN(c5ccccn5)CC4)c3c2c1`, the AC50 under setting [1] is 0.0058 µM [rising, full curve, poor fit].
Regarding `C[C@H](NC(=O)Nc1cccc(Br)c1)C(=O)O`, the cell number change was -38.6%. Also, the AC50 under setting [2] is 18.4 µM [falling, partial curve].
For the compound `COc1ccccc1C(=O)OCCN=C1NS(=O)(=O)c2ccccc21`, the cell number change was -4.44%. The AC50 under setting [2] was 29.1 µM [falling, single point].
Consider `COc1ccccc1N1CCN(/N=C/c2cc(OC)c(OC(C)=O)c(OC)c2)CC1`, for which the cell number change was determined as 12.4%. In addition, the half-maximal activity concentration (AC50) under setting [1] was 7.31 µM [rising, partial curve, poor fit]. Also, the AC50 under setting [2] was 5.8 µM [rising, single point].
Regarding `Cc1ccc(C(=O)NCCCc2ccccc2)c(Cl)c1`, the cell number change turned out to be 25.9%. Further, the AC50 under setting [1] is 0.82 µM [rising, full curve, poor fit].
As for `COc1ccc(CN2CCCN(S(=O)(=O)c3ccc(Br)cc3)CC2)cc1`, the cell number change came to 8.21%. Further, the AC50 under setting [2] is 32.6 µM [rising, single point].
As for `Oc1ccccc1N=Cc1sc2ccccc2c1Cl`, the cell number change was -23.1%. In addition, the AC50 under setting [2] is 2.59 µM [falling, full curve].
Turning to `O=C(Nc1ccc(Cl)cc1)N1CCC(c2nc(-c3ccc(F)cc3)no2)CC1`, the cell number change was -36.5%. In addition, the AC50 under setting [1] is 18.4 µM [falling, single point].
